“And” between values parts separate entries of the source, which are not always exact repeats. Equal values may be shown once. The whole screen tested about 360,000 compounds, of which about 7,500 (2.1%) were called active. The shares of active, inactive and inconclusive entries below differ from those in the screen. Calls come from the whole dose curve; as a rule, active = well fitted inhibition curve with a large enough effect; inconclusive = small, poorly fitted or top-dose-only effect, or effect the other way; inactive = flat fitted curve, though single readings scatter. Potencies beside an inconclusive call are fits to weak or partial responses and may not hold up.
assay: Nrf2 qHTS screen for inhibitors; settings: A549 ARE-Fluc reporter, luciferase luminescence, 18-24 h; series mostly up to 46 µM; note: nearly all actives have a fitted effect of over 60% in size
In short: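 Cells were seeded and rested 2 h, then exposed to compounds for 18-24 h. CellTiter-Fluor was read first as a viability measure. BugLite was added 15 min before the final luminescent read of ARE-luciferase activity in A549 cells.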
Potency is the fitted concentration of half-maximal effect.

Compound | Potency
Cc1oc(-c2ccc(C(=O)Nc3cc(F)ccc3F)cc2)nc1COc1ccccc1 | inconclusive: 0.92 µM [falling, full curve, poor fit]
COc1ccccc1/C=C/C=N\N1CCN(Cc2ccccc2Cl)CC1 | inactive
CCC(C)NC(=O)c1cnn(-c2ccc(Cl)cc2)c1C1CCN(C(=O)OC(C)(C)C)CC1 (stereo not given) | inconclusive: 18.4 µM [activator, partial curve]
O=C(NCCc1ccc(Cl)cc1)c1ccc(CS(=O)Cc2cccc(Cl)c2)o1 (stereo not given) | inconclusive: 29.1 µM [falling, single point]
NNC(=O)c1ccc2nc(-c3ccc(Br)cc3)cn2c1 | inconclusive: 0.92 µM [activator, full curve, poor fit]
CC(C)c1ccc(OCC(=O)NCc2n[nH]c(=O)c3ccccc23)cc1 | inconclusive: 29.1 µM [falling, partial curve, poor fit]
COc1ccc(CNC(=O)CN2C(=O)C(c3ccccc3)Oc3cccnc32)cc1 (stereo not given) | active: 23.1 µM
Nc1nc(NCc2ccco2)nc(N2CCCCC2)c1[N+](=O)[O-] | inconclusive: 20.6 µM [falling, single point]
Cc1ccc2c(c1)cc(C(=O)Nc1ccc(F)cc1F)n2C | inactive
CCOc1ccc(CCNC(=O)C2CCCN(c3ncnc4c3nc3n4CCCCC3)C2)cc1 (stereo not given) | inconclusive: 29.1 µM [falling, single point]
Cc1ccc([N+](=O)[O-])cc1NC(=O)Nc1cccc(F)c1 | inconclusive: 18.4 µM [falling, partial curve, poor fit]
COc1ccc(NC(=O)COc2ncnc3ccccc23)cc1S(=O)(=O)N1CCOCC1 | inconclusive: 14.6 µM [falling, partial curve, poor fit]
Cc1cc(-c2nnc(CCC(=O)NC(C)(C)C34CC5CC(CC(C5)C3)C4)o2)no1 | inactive
O=C(N/C(=C/c1ccc(F)cc1)C(=O)N1CCCC1)c1ccccc1 | inconclusive: 29.1 µM [falling, single point]
Cc1cccc2sc(NC(=O)C3CCCO3)nc12 (stereo not given) | inconclusive: 20.6 µM [activator, single point]
Cc1ccccc1NC(=O)Nc1cnccn1 | inconclusive: 32.6 µM [falling, partial curve, poor fit]
NC(=S)N=Nc1c(O)[nH]c2cc(F)c(F)cc12 | inconclusive: 7.31 µM [falling, partial curve]
CN(C)CC(C)(C)CNS(=O)(=O)CC12CCC(CC1=O)C2(C)C (stereo not given) | inconclusive: 0.517 µM [falling, full curve, poor fit]
CSc1nsc2nc(=O)c(/C=C3\C(C)=Nc4ccc(C)cc43)c(N)n12 | inconclusive: 23.1 µM [falling, single point]
O=C(N/N=C/c1ccc(Cl)cc1)c1nc2ccc([N+](=O)[O-])cc2c(=O)[nH]1 | inconclusive: 5.8 µM [falling, full curve, poor fit]
COc1cc(NC(=O)CN2C(=O)C(C)N(c3ccc(C)cc3)C2=O)cc(OC)c1 (stereo not given) | inactive
Oc1ccc(-c2[nH]nc(-c3ccccc3)c2-c2nc3ccccc3[nH]2)cc1 | inconclusive: 1.64 µM [falling, partial curve, poor fit]

Looked up above:
Potency, Cc1ccc([N+](=O)[O-])cc1NC(=O)Nc1cccc(F)c1 reads inconclusive: 18.4 µM [falling, partial curve, poor fit]
Potency, Cc1cccc2sc(NC(=O)C3CCCO3)nc12 (stereo not given) reads inconclusive: 20.6 µM [activator, single point]

Following part.

Compound | Potency
CCCn1c2ccccc2c2cnn(CC(=O)NCCc3ccc(OC)cc3OC)c(=O)c21 | inactive
CCN(CC)c1nn2c(=O)c(C(=O)NCc3ccc(F)cc3)cnc2s1 | inactive
CCCCNC(=S)Nc1ccc(-c2nc3ccc(C)cc3s2)cc1 | inconclusive: 13 µM [activator, partial curve, poor fit]
CCOc1cc(/C=C/C(=O)O)ccc1OCCOc1ccccc1 | inconclusive: 16.4 µM [falling, single point]
O=C1c2ccccc2-c2n[nH]c3cccc1c23 | inconclusive: 29.1 µM [falling, single point]
C=CCC[C@@H](Cc1ccc(F)cc1)C(=O)OC[C@H](Cc1c[nH]c2ccccc12)NC(=O)[C@@H](CC=C)CC(=O)N(CCO)Cc1ccccc1 | active: 20.6 µM
Cc1ccc(C)c(C(=O)OCC(=O)Nc2cccc(S(=O)(=O)NC3=NCCCCC3)c2)c1 | inconclusive: 18.4 µM [falling, single point]
CN(Cc1ccccc1)c1nc(-c2ccc([N+](=O)[O-])cc2)nc2ccccc12 | inconclusive: 23.1 µM [falling, partial curve, poor fit]
Cc1ccc(/C=C/C(=O)c2cc(Br)ccc2OC(=O)c2ccco2)cc1 | inactive
O=C(c1ccc(OCCN2CCCCC2)cc1)c1c(-c2ccc(O)cc2)sc2cc(O)ccc12 | inconclusive: 16.4 µM [activator, single point] and inconclusive: 7.31 µM [activator, partial curve, poor fit]
Cc1ccc(C(=O)NNC(=S)NC(=O)c2ccc(Cl)cc2)cc1 | active: 16.4 µM
O=C(O)CNc1nc(-c2ccccc2)nc2c1oc1ccccc12 | inactive
CCOc1cc(CNCC(C)C)c(Cl)cc1OCC(=O)Nc1ccccc1 | inconclusive: 18.4 µM [activator, single point]
COc1ccc2c(c1OC)C(=O)N(c1cccc(/C=C/C(=O)O)c1)C2 | active: 16.4 µM
O=C(CNC(=O)c1ccccc1)N/N=C/c1ccc([N+](=O)[O-])o1 | inconclusive: 25.9 µM [falling, single point]
CC(=O)NS(=O)(=O)c1ccc(NC(=S)NC(=O)c2ccco2)cc1 | inactive
CCCCn1c(CNC(=O)c2ccc(OC)cc2)nnc1SCC(=O)Nc1ccc(OC)cc1 | inactive
Cc1ccc(NCc2nc3ccccc3n2CCOc2ccccc2)cc1 | inconclusive: 11.6 µM [activator, partial curve] and inconclusive: 6.51 µM [activator, single point]
N#Cc1c(-c2ccc(Cl)cc2)ccnc1N1CCOCC1 | inconclusive: 25.9 µM [activator, single point]
O=C(COc1ccccc1-c1ccccc1)Nc1ccc(S(=O)(=O)NCc2ccco2)cc1 | inconclusive: 29.1 µM [falling, single point]
Clc1ccc(-c2nnc(NC3=NCCCCC3)o2)cc1 | inconclusive: 13 µM [falling, single point]
CCc1nc(SCC(=O)N2CCC(C)CC2)c2c(=O)n(C)c(=O)n(C)c2n1 | inactive

Compound | Potency
Cc1ccc(C)c(S(=O)(=O)N=Nc2c(O)[nH]c3ccccc23)c1 | inactive
COc1ccc(/C=C/C(=O)NC(=S)N2CCOCC2)cc1 | inconclusive: 23.1 µM [activator, single point]
CCOC(=O)c1sc2nc(-c3ccco3)c3c(c2c1N)CC(C)(C)OC3 | inconclusive: 13 µM [activator, partial curve]
CN(C)C(=O)CSc1ccccc1C(=O)OCC(=O)NC1CC1 | inactive
COc1ccc(OCCCC(=O)Nc2cc(S(=O)(=O)N3CCCCC3)ccc2C)cc1 | inactive
CS(=O)(=O)N1CCN(c2ccc(NC(=O)c3ccccc3)cc2)CC1 | inconclusive: 2.91 µM [activator, single point]
COCCN1C=C(C(=O)OC)C(c2ccc(Cl)cc2)C(C(=O)OC)=C1 | inactive
Cc1noc(C)c1S(=O)(=O)N1CCC(C(=O)Nc2ccc(OC(F)(F)F)cc2)CC1 | inconclusive: 20.6 µM [falling, single point]
COc1ccccc1-c1ccc(/C=C2\C=CC(=O)O2)o1 | inactive
O=C(Nc1ccc(Cl)cc1)N1CCN(c2ccc3nnc(-c4ccc(F)cc4)n3n2)CC1 | active: 20.6 µM
O=C(c1ccc2c(=O)n(CCc3ccccc3)c(=O)[nH]c2c1)N1CCN(C(=O)c2ccco2)CC1 | inconclusive: 7.31 µM [falling, partial curve]
COc1cc2c(cc1OC)CN(C(=O)c1cc(S(=O)(=O)N3CCOCC3)c(Cl)cc1Cl)CC2 | inconclusive: 18.4 µM [falling, single point]
ClC(Cl)(Cl)c1nc2ccccc2n2nncc12 | inconclusive: 18.4 µM [falling, partial curve, poor fit]
O=C(CCN1CCOCC1)NC12CC3CC(CC(C3)C1)C2 | inconclusive: 6.51 µM [falling, single point]
O=C(CN(C(=O)Cn1nnc(-c2ccccc2F)n1)c1cccc2c1CCCC2)NCc1ccccc1 | inconclusive: 14.6 µM [falling, partial curve]
Cc1ccc(NC(=O)N2CCCc3ccccc32)cc1 | inconclusive: 10.3 µM [activator, partial curve, poor fit]
Cc1ccc(-n2ncc(C(=O)NCCc3ccsc3)c2C2CCN(C(=O)OC(C)(C)C)CC2)cc1C | inconclusive: 23.1 µM [falling, single point]
O=C(Nc1ccccc1Cl)N1CCN(c2ccc3nnc(-c4ccc(F)cc4)n3n2)CC1 | inconclusive: 20.6 µM [falling, partial curve]
Cc1ccc(NC(=O)c2cc3ccccc3oc2=N)cc1 | inconclusive: 0.82 µM [activator, full curve]
CCN(CC)CCOC(=O)c1ccc(NC(=O)c2cn(-c3ccccc3)nc2-c2cccs2)cc1 | inconclusive: 2.06 µM [activator, partial curve, poor fit]
O=C(COC(=O)CNC(=O)c1ccc(Br)o1)Nc1ccc2c(c1)OCCO2 | inconclusive: 29.1 µM [activator, single point]

From PubChem BioAssay AID504444 (National Center for Advancing Translational Sciences (NCATS), 2011)
